Experimental data from paper PMC9879999, “A phosphoinositide hub connects CLE peptide signaling and polar auxin efflux regulation” (Nature Communications, 2023).
Where two headings read alike, the source gives them in different places. No constants are given. Whether binding was seen depends on the method and setting. A result given as binding can be weak or reduced; the word gives no strength.

Protein sequences, listed by entry. Tags and fused reporters are not part of them. Lines headed by an entry give the natural chain unless they say otherwise; changes in a name come on top.
UniProt Q17TI5: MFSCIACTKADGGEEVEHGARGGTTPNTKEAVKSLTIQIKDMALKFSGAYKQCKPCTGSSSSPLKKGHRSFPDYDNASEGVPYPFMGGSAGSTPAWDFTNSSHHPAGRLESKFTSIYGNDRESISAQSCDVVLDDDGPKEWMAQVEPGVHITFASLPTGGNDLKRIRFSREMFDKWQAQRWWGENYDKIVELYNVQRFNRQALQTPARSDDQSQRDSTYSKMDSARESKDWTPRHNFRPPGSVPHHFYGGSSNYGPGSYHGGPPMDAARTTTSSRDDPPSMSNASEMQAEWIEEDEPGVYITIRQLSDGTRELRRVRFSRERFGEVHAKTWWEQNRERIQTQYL

Assays:
Test in all cases: two-hybrid; Golden Yeast strain; pGBKT7 or pGADT7 vectors as baits or preys; tested on -Trp-Leu and -Trp-Leu-Ade-His medium; 3-AT added for BRX-related bait proteins
[1] = target: BRX C-terminus (C-terminal 'BRX-domains' of BRX) (Arabidopsis thaliana) (UniProt Q17TI5)
[2] = target: BRX C-terminus (C-terminal 'BRX-domains' of BRX) (Arabidopsis thaliana) (UniProt Q17TI5); remark: listed apart in the source
[3] = target: PAX N-terminus (Arabidopsis thaliana) (UniProt F4IV25)
[4] = target: PROTEIN KINASE ASSOCIATED WITH BRX (PAX) (Arabidopsis thaliana)

Molecule	binding [1]	binding [2]	binding [3]	binding [4]
PHO…OSITOL-4-PHOSPHATE-5-KINASE 1 (PIP5K1) (enzyme, UniProt Q56YP2 1-752) MSDSEEDEEEEEASEVILSSVVQKKKKKNLRFGEEVERRDGLVLLAQSTPMVRSRSQGTTRRVTPTPLVDVEKPLPNGDLYIGSFSGGFPHGSGKYLWKDGCMYEGDWKRGKASGKGKFSWPSGATYEGEFKSGRMEGFGTFTGADGDTYRGTWVADRKHGHGQKRYANGDFYEGTWRRNLQDGRGRYVWRNGNQYTGEWRSGVISGKGLLVWPNGNRYEGLWENGIPKGNGVFTWSDGSSCVGAWNESNIMRSFFNGVEKNDLIVGNRKRSSVDSGAGSLGGEKVFPRICIWESDGEAGDITCDIIDNVEASMIYRDRISVDRDGFRQFKKNPCWFNGEAKKPGQTISKGHKKYDLMLNLQLGIRYSVGKHASIVRDLKQTDFDPKEKFWTRFPPEGTKTTPPHQSVDFRWKDYCPLVFRRLRELFQVDPAKYMLAICGNDALRELSSPGKSGSFFYLTQDDRFMIKTVKKSEVKVLLRMLPSYYKHVCQYENSLVTRFYGVHCVKPVGGQKTRFIVMGNLFCSEYRIQRRFDLKGSSHGRSTAKPEGEIDETTTLKDLDLNFSFRLQRNWYQELMKQIKRDCEFLEAERIMDYSLLVGVHFRDDNTGEKMGLSPFVLRSGRIDSYQNEKFMRGCRFLEAELQDMDRILAGRKPSIRLGANMPAKAERMARRSDFDQYSSGGASYPSHGEMYEVVLYFGVIDILQDYDITKKIEHAYKSLQADPASISAVDPKLYSKRFRDFISRIFIEEG		binds	binds	
BARELY ANY MERISTEM 3 (BAM3) kinase domain (domain or fragment, UniProt O65440 710-992) VKENHVIGKGGRGIVYKGVMPNGEEVAVKKLLTITKGSSHDNGLAAEIQTLGRIRHRNIVRLLAFCSNKDVNLLVYEYMPNGSLGEVLHGKAGVFLKWETRLQIALEAAKGLCYLHHDCSPLIIHRDVKSNNILLGPEFEAHVADFGLAKFMMQDNGASECMSSIAGSYGYIAPEYAYTLRIDEKSDVYSFGVVLLELITGRKPVDNFGEEGIDIVQWSKIQTNCNRQGVVKIIDQRLSNIPLAEAMELFFVAMLCVQEHSVERPTMREVVQMISQAKQPNTF				no binding
PBS1-LIKE 35 (PBL35) (enzyme, UniProt Q9SRH7 1-490) MGFDSVKVMENWQSKTSNENEKKKKKRRRKKNNNVRNSEHYEEEANGCWVKFRYIVCCASSTSDVETSLTLSTSTVGSQSAIVQSNDQPVGPVSSTTTTSNAESSLSTPIISEELNIYSHLKKFSFIDLKLATRNFRPESLLGEGGFGCVFKGWVEENGTAPVKPGTGLTVAVKTLNPDGLQGHKEWLAEINYLGNLLHPNLVKLVGYCIEDDQRLLVYEFMPRGSLENHLFRRSLPLPWSIRMKIALGAAKGLSFLHEEALKPVIYRDFKTSNILLDGEYNAKLSDFGLAKDAPDEGKTHVSTRVMGTYGYAAPEYVMTGHLTSKSDVYSFGVVLLEMLTGRRSMDKNRPNGEHNLVEWARPHLLDKRRFYRLLDPRLEGHFSVKGAQKVTQLAAQCLSRDSKIRPKMSEVVEVLKPLPHLKDMASASYYFQTMQAERLKAGSGSGSGRGFGSRNGQPVFRTLSSPHGQAGSSPYRHQIPSPKPKGATT		binds		no binding
PBS1-LIKE 36 (PBL36) (enzyme, UniProt F4J0D2 1-476) MATKLESFKVVEKLGVEKGEKGKMMSKKKNVKKDGDESESGFWFRFKFIFSCISSRSKVDSSMNATAVIAEPKKVIEKLEGHPAPTKDTGCAESGSSTPLMSGELKYSSKLRIFMFNDLKLATRNFRPESLLGEGGFGCVFKGWIEENGTAPVKPGTGLTVAVKTLNPDGLQGHKEWLAEINFLGNLVHPSLVKLVGYCMEEDQRLLVYEFMPRGSLENHLFRRTLPLPWSVRMKIALGAAKGLAFLHEEAEKPVIYRDFKTSNILLDGEYNAKLSDFGLAKDAPDEKKSHVSTRVMGTYGYAAPEYVMTGHLTTKSDVYSFGVVLLEILTGRRSVDKSRPNGEQNLVEWVRPHLLDKKRFYRLLDPRLEGHYSIKGAQKATQVAAQCLNRDSKARPKMSEVVEALKPLPNLKDFASSSSSFQTMQPVAKNGVRTQGGGFVSRNGPPMRSLSSLNLPQASPYRYARQSPKPKGKEP		binds		no binding
D6 PROTEIN KINASE (D6PK) (enzyme, UniProt Q9FG74 1-498) MMASKTPEGSLTNSSQSMSINTLADQVSSSLSFADPSSDGKTGNSKINEQGESGKSSTCRPSTSSDISDESTCSSFSSSINKPHKANDVRWEAIQAVRTKHGGLGLNHFRLLKRLGCGDIGTVHLAELNGTRCYFAMKVMDKTALASRKKLLRAQTEREILQCLDHPFLPTLYSHFETEKFSCLVMEFCPGGDLHTLRQRQPGKRFTEQAAKFYVAEVLLAMEYLHMLGIIYRDLKPENVLVRDDGHVMLSDFDLSLRCTVSLSIVRSANVGSEGLSKNSVSCSQQPACIQQPSCISMAPTSCFGPRFFSSKSKKDKKPKTENGNHQVTPLPELVAEPTGARSMSFVGTHEYLAPEIIKGEGHGSAVDWWTFGIFLYELLFGKTPFKGSGNRATLFNVVGQPLRFPESPVVSFAARDLIRSLLVKEPQHRLAYKRGATEIKQHPFFEGVNWALVRCASPPEIPKPVDLEALNPTPTVPAAASSSVRSDQSNYLEFDFF		binds		
PBS1-LIKE 34 (PBL34) (enzyme, UniProt Q9LFP7 1-493) MGLDAVKAKGNWKSEKPKETENKNHKKKNGDDNKSRNEEEEEGEASGCWVKFRFMIGCIPSKSDLDASSSSIYGSNCTVTTMESKSANEKSNDQPVGQVSSTTTTSNAESSSSTPVISEELNISSHLRKFTFNDLKLSTRNFRPESLLGEGGFGCVFKGWIEENGTAPVKPGTGLTVAVKTLNPDGLQGHKEWLAEINFLGNLLHPNLVKLVGYCIEDDQRLLVYEFMPRGSLENHLFRRSLPLPWSIRMKIALGAAKGLSFLHEEALKPVIYRDFKTSNILLDADYNAKLSDFGLAKDAPDEGKTHVSTRVMGTYGYAAPEYVMTGHLTSKSDVYSFGVVLLEMLTGRRSMDKNRPNGEHNLVEWARPHLLDKRRFYRLLDPRLEGHFSIKGAQKVTQLAAQCLSRDPKIRPKMSDVVEALKPLPHLKDMASSSYYFQTMQAERLKNGSGRSQGFGSRNGQHQPVFRTLSSPHGSSPYRHQIPSPKPKGATT		binds		no binding

Other lines, results leading:

binding [1]	binding [2]	binding [3]	binding [4]	Molecule
binds				kinase domain of PAX (from UniProt F4IV25) (domain or fragment)
			binds	kinase-dead PIP5K1 variant (K536A; 'iPIP5K1') (enzyme, UniProt Q56YP2 1-752) MSDSEEDEEEEEASEVILSSVVQKKKKKNLRFGEEVERRDGLVLLAQSTPMVRSRSQGTTRRVTPTPLVDVEKPLPNGDLYIGSFSGGFPHGSGKYLWKDGCMYEGDWKRGKASGKGKFSWPSGATYEGEFKSGRMEGFGTFTGADGDTYRGTWVADRKHGHGQKRYANGDFYEGTWRRNLQDGRGRYVWRNGNQYTGEWRSGVISGKGLLVWPNGNRYEGLWENGIPKGNGVFTWSDGSSCVGAWNESNIMRSFFNGVEKNDLIVGNRKRSSVDSGAGSLGGEKVFPRICIWESDGEAGDITCDIIDNVEASMIYRDRISVDRDGFRQFKKNPCWFNGEAKKPGQTISKGHKKYDLMLNLQLGIRYSVGKHASIVRDLKQTDFDPKEKFWTRFPPEGTKTTPPHQSVDFRWKDYCPLVFRRLRELFQVDPAKYMLAICGNDALRELSSPGKSGSFFYLTQDDRFMIKTVKKSEVKVLLRMLPSYYKHVCQYENSLVTRFYGVHCVKPVGGQKTRFIVMGNLFCSEYRIQRRFDLAGSSHGRSTAKPEGEIDETTTLKDLDLNFSFRLQRNWYQELMKQIKRDCEFLEAERIMDYSLLVGVHFRDDNTGEKMGLSPFVLRSGRIDSYQNEKFMRGCRFLEAELQDMDRILAGRKPSIRLGANMPAKAERMARRSDFDQYSSGGASYPSHGEMYEVVLYFGVIDILQDYDITKKIEHAYKSLQADPASISAVDPKLYSKRFRDFISRIFIEEG
			no binding	kinase domain of CORYNE (CRN) (domain or fragment, UniProt Q9LYU7 118-401) SNGIQLLGSDLNGKYYKMVLDNGLVVAVKRLGSLEGVGSPESSSSKSVKRRLQKELELLAGLRHRNLMSLRAYVRESDEFSLVYDYMPNGSLEDVMNKVRTKEVELGWEIRLRVAVGIVKGLQYLHFSCETQILHYNLKPTNVMLDSEFEPRLADCGLAKIMPSSHTAVSCYSAPESSQSNRYTDKSDIFSFGMILGVLLTGRDPTHPFCEESASGGSLGQWLKHLQQSGEAREALDKTILGEEVEEDEMLMALRITIICLSDFPADRPSSDELVHMLTQLHSF
	binds	binds		PHO…OSITOL-4-PHOSPHATE-5-KINASE 2 (PIP5K2) (enzyme, UniProt Q8L796 1-754) MMREPLVSEEEEEEATEVLLVEKTKLCKRRGDEEKTEERRDDLLLLALTPMVRSKSQGTTRRVTPTPPPVDVEKPLPNGDLYMGTFSGGFPNGSGKYLWKDGCMYEGEWKRGKASGKGKFSWPSGATYEGEFKSGRMEGSGTFVGVDGDTYRGSWVADRKQGHGQKRYANGDYYEGTWRRNLQDGRGRYVWMNGNQYTGEWRNGVICGKGVLAWPNGNRYEGQWENGVPKGSGVFTWADGSSWIGSWNESSNLMRNFFDGIEKNELIVATRKRSSVDSGAGSLTGEKIFPRICIWESDGEAGDITCDIVDNVEASVIYRDRISIDKDGFRQFRKNPCCFSGEAKKPGETISKGHKKYDLMLNLQHGIRYSVGKHASVVRDLKQSDFDPSEKFWTRFPPEGSKTTPPHLSVDFRWKDYCPLVFRRLRELFTVDPADYMLAICGNDALRELSSPGKSGSFFYLTQDDRFMIKTVKKSEVKVLLRMLPSYYKHVCQYENTLVTRFYGVHCIKPVGGQKTRFIVMGNLFCSEYRIQRRFDLKGSSHGRYTSKPEGEIDETTTLKDLDLNFAFRLQRNWYQELMTQIKRDCEFLEAERIMDYSLLVGVHFRDDNTGDKMGLSPFVLRSGKIESYQSEKFMRGCRFLEAELQDMDRILAGRKPLIRLGANMPARAERMARRSDYDQYSSGGTNYQSHGEVYEVVLYFGIIDILQDYDISKKIEHAYKSLQADPASISAVDPKLYSRRFRDFISRIFIEDG
